The supplement of paper PMC12889115
Some of the results follow. These are raw signals, not scaled to a control.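 Primary screen: polymyxin B was added at a level permeabilizing Salmonella outer membranes while sparing inner membranes. DMSO wells, both with and without polymyxin B, established maximum growth. Plate-to-plate variation meant each plate was ranked on its own, and the lowest-OD600 compounds were selected as hits.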

System: Salmonella enterica serovar Typhimurium SL1344
Test: bacterial growth OD600 after 18 h with compound and polymyxin B; higher = more bacterial growth (less inhibition)
Settings: 50 µM, Mueller-Hinton broth

Structure (SMILES)	bacterial growth OD600 (polymyxin B 0.75 µg/mL)	bacterial growth OD600 (polymyxin B 1 µg/mL)
CN(C)C(=O)c1ccc(N2CCC(NCCC(c3ccccc3)c3ccco3)CC2)cc1 (stereo unspecified)	1.01	–
O=C(c1ccc(N2CCOCC2)cc1)N(Cc1ccncc1)Cc1cccc(OCCc2ccc(F)cc2)c1	-0.001	–
Cc1c[nH]c(CN(C)C(=O)C2(N3CCCCC3)Cc3ccccc3C2)n1	0.304	–
C=CCNCc1cn(-c2ccc(OC)cc2)nc1-c1ccccc1Cl	–	0.599
Cc1ccc(CN2CCN(Cc3ccccc3C)CC2CCO)o1 (stereo unspecified)	–	1.05
O=C(CCC1CCCN(C(=O)c2ccc3ccccc3c2)C1)NC1CC1 (stereo unspecified)	–	0.89
CC(c1cccs1)N(C)C(=O)CC1(c2ccccc2)CC(=O)N(CCCOc2cccnc2)C1=O (stereo unspecified)	0.763	–
Cc1ccccc1-c1cnnc(N2CCOCC2)n1	0.874	–
O=C(c1cc(COc2ccccc2F)[nH]n1)N1CCOCC1	–	0.828
COc1ccccc1OCc1cc(C(=O)NC2(c3ccccc3)CC2)n[nH]1	–	1.02
COc1cccc(C2c3[nH]c4ccccc4c3CCN2Cc2ccc(CO)o2)c1OC (stereo unspecified)	0.842	–
O=C(Nc1ccnn1C1CCN(C(=O)CCOc2ccccc2)CC1)C1CCOC1 (stereo unspecified)	–	1.01
COCc1ccc(CN2CCOc3ccc(CN4CCC(OCc5ccccc5)CC4)cc3C2)o1	0.705	–
CCOC(=O)C1(CC2CCCCO2)CCN(S(=O)(=O)c2cc(F)c(F)cc2F)CC1 (stereo unspecified)	0.593	–
O=C(NCCCC1CCCC1)C1CCCN(C2CCN(C(=O)C3CC3)CC2)C1 (stereo unspecified)	0.562	–
O=C(c1cccnc1)N1CCC(Oc2ccccc2C(=O)N2CCCCCC2)CC1	–	1.24

A run of entries from the list above:
Structure (SMILES)	bacterial growth OD600 (polymyxin B 0.75 µg/mL)	bacterial growth OD600 (polymyxin B 1 µg/mL)
O=C(c1cc(COc2ccccc2F)[nH]n1)N1CCOCC1	–	0.828
COc1ccccc1OCc1cc(C(=O)NC2(c3ccccc3)CC2)n[nH]1	–	1.02

(continued)

Structure (SMILES)	bacterial growth OD600 (polymyxin B 0.75 µg/mL)	bacterial growth OD600 (polymyxin B 1 µg/mL)
COc1cccc(-c2nc3ccc(C(=O)N(C)CCC4CCCCO4)cc3o2)c1 (stereo unspecified)	–	0.932
Cc1csc(C(C)NC(=O)c2cc(NS(=O)(=O)N(C)C)cc3nc(CC(C)C)n(C)c23)n1 (stereo unspecified)	0.842	–
Cc1ccc(CNC2CCCc3nc(N4CCC(CO)CC4)ncc32)s1 (stereo unspecified)	0.822	–
O=C(N1CCN(CCO)CC1)C1(N2CCCCC2)Cc2ccccc2C1	–	1.05
Cc1csc(C(C)N(C)C(=O)CC2(c3ccc(-c4ccccc4)cc3)CC(=O)N(C)C2=O)n1 (stereo unspecified)	0.011	–
CCS(=O)(=O)N1C[C@H]2OC(=O)N(CCc3cccc(Cl)c3)[C@H]2C1	–	1
COc1ccccc1-c1ccnc(-n2ncc(C(=O)NC3CCCC3)c2C2CC2)n1	0.759	–
Cc1c(C(=O)NCC(C)C)sc2ncnc(NC[C@H]3C[C@@H]4C=C[C@H]3C4)c12	0.01	–
CC(C)N(CCO)Cc1cn(Cc2ccccc2)nc1-c1cc2ccccc2o1	–	0.831
COC(=O)c1ccc(-c2nc(CN(CCO)Cc3cccs3)c(C)o2)cc1	–	0.798
COc1cccc(CN2CCN(Cc3cc4ccccc4o3)CC2CCO)c1 (stereo unspecified)	–	0.965
CCN(CCO)C(=O)CCC1(Cc2ccc(OC)c3ccccc23)CCC(=O)N1 (stereo unspecified)	1.03	–
O=C(C1CC(Cc2cccc(Cl)c2)=NO1)N1CCN(c2ncc3ccccc3n2)CC1 (stereo unspecified)	0.905	–
C=CCS(=O)(=O)N1CCC(C2CCN(CCc3ccccc3)C2)CC1 (stereo unspecified)	0.727	–
CCC1CN(Cc2ccc3c(c2)CCO3)Cc2cc(OC)ccc2O1 (stereo unspecified)	0.751	–
